Laboratory results from ChEMBL document CHEMBL4316593 (Eur J Med Chem, 2019).
The source gives many values for each of these; only a part stands here.

What was measured:
[1] = Inhibition of RTK/PI3K/AKT/mTOR signaling in human U87 cells assessed as up regulation of coagulation factor III, tissue factor gene expression at cytotoxic IC50 measured after 48 hrs relative to control; format: cell-based; conditions: U-87MG ATCC
[2] = Inhibition of RTK/PI3K/AKT/mTOR signaling in human U87 cells assessed as up regulation of leukotriene A4 hydrolase gene expression at cytotoxic IC50 measured after 48 hrs relative to control; format: cell-based; conditions: U-87MG ATCC

## CC(=O)C(=NNc1ccccc1C#N)C(C)=O
[1]
  log2FC: 1.24
[2]
  log2FC: 0.746
